We go through 41 compounds from PubChem BioAssay AID493014 (National Center for Advancing Translational Sciences (NCATS), 2011).

This test in a line: qHTS Assay to Find Inhibitors of Chronic Active B-Cell Receptor Signaling. To be noted: ABC-DLBCL IkBa-CBG/CBR reporter, luminescence ratio (green luciferase fused to IkBa over red control in TMD8 lymphoma cells), 4 h. In short, it runs like this: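 Compounds up to 46 uM were incubated four hours with TMD8 cells whose green CBG68 luciferase is fused to IkappaBalpha; red CBR luminescence normalised the signal, and concentration-effect curves were fitted to fusion, red and ratio data.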

The mark [1] stands for this setting: measured here: CBR red luminescence, cell number.
Where [2] appears, read: measured here: IkBa-CBG green luminescence.

SMILES strings stand for the structures. Values joined by “and” are separate entries in the source; they are usually repeats but may differ in a detail not shown here. Equal values may be shown once. The list shows a part of the results. Shown are side measurements of this screen, not its main read-out; they come without a call. Most of these compounds were active or inconclusive in the main read-out, so they are no random draw. The note in brackets gives the kind of curve behind each potency; many fits are weak.

On to `O=C(O)c1cccc(S(=O)(=O)N2CCOCC2)c1`, for which the AC50 under setting [1] was 4.11 µM [rising, partial curve, poor fit].

As for `CCc1ccc(N=C2NC(=O)/C(=C/c3ccc(OCC(=O)O)c(OC)c3)S2)cc1`, the AC50 under setting [1] was 5.62 µM [rising, partial curve].

Take `CCOc1cc(C(=O)N(C)CC(=O)Nc2cccc3ccccc23)ccc1OC`: under setting [2], the AC50 is 18.4 µM [falling, partial curve, poor fit].

On to `Cc1ccccc1SCc1noc(C(=O)NC(C)C)c1C(=O)O`, for which the AC50 under setting [1] was 12.6 µM [falling, partial curve].

On to `c1ccc2c(c1)CCN(c1nc3ccccc3n3cnnc13)C2`, for which the AC50 under setting [1] was 20.6 µM [falling, single point].

As to `O=C(CC1CCCC1)Nc1nc2ccccc2[nH]1`, under setting [1], the half-maximal activity concentration (AC50) was 10 µM [falling, partial curve].

With `O=C(c1cc2c(s1)CCCC2)N1CCN(Cc2ccc3c(c2)OCO3)CC1`, the AC50 under setting [1] was 35.5 µM [falling, partial curve, poor fit].

Take `CC(C)(C)c1cc2cccnc2n1Cc1cccc(Cl)c1`: the AC50 under setting [1] is 29.1 µM [falling, single point].

`COc1ccc(C(=O)NCC(c2ccco2)N2CCc3ccccc32)c(OC)c1` (configuration not stated): the AC50 by setting is: under setting [1], 18.4 µM [falling, partial curve]; under setting [2], 18.4 µM [rising, partial curve, poor fit].

In the case of `COc1ccc(C)cc1CN1C(=O)c2ccccc2C1=O`, under setting [1], the AC50 was 35.5 µM [falling, partial curve, poor fit].

Take `O=C(Nc1ccc2oc(=O)ccc2c1)c1ccc(-c2ccccc2[N+](=O)[O-])o1`: under setting [1], the half-maximal activity concentration (AC50) is 10 µM [rising, partial curve].

As to `O=C1CSC(c2cccc(Cl)c2Cl)N1c1ccccn1` (configuration not stated), under setting [1], the AC50 was 2.31 µM [rising, single point].

Regarding `Oc1[nH]c2ccccc2c1C=Nc1ccc2c(c1)OCCO2`, the AC50 under setting [1] was 22.4 µM [falling, partial curve, poor fit].

With `CC(C)OCCCNC(=O)c1sc(=S)n(C)c1N`, the concentration at half-maximal activity (AC50) under setting [1] was 3.16 µM [rising, single point].

`COc1ccc(C(=O)O/N=C(/c2cccs2)C(C)(C)C)cc1`: the concentration at half-maximal activity (AC50) under setting [1] is 3.55 µM [rising, full curve, poor fit].

Take `O=C(Nc1ccc(Oc2ccc(NC(=O)Nc3ccc([N+](=O)[O-])cc3)cc2)cc1)Nc1ccc([N+](=O)[O-])cc1`: under setting [1], the half-maximal activity concentration (AC50) was 3.98 µM [rising, partial curve].

On to `Oc1c(C=C2N=c3ccccc3=N2)sc(=S)n1-c1ccc(F)cc1`, for which the AC50 under setting [1] is 7.94 µM [falling, partial curve] and 16.4 µM [falling, single point].

For `O=C(CS(=O)(=O)c1ccccc1)c1cc2ccccc2oc1=O`, the AC50 under setting [1] was 35.5 µM [falling, single point].

`Cc1cc(C)nc(NNC2=CC(=[N+]3CCCC3)CCC2)n1`: the concentration at half-maximal activity (AC50) under setting [1] was 0.224 µM [falling, full curve, poor fit].

In the case of `CC(C)(C)c1[nH]nc2c1C(c1ccncc1)C(C#N)=C(N)O2` (configuration not stated), the half-maximal activity concentration (AC50) under setting [1] is 15.8 µM [falling, partial curve, poor fit].

As to `O=C(CSc1ccccn1)N1CCN(c2cccc(Cl)c2)CC1`, under setting [1], the half-maximal activity concentration (AC50) is 23.1 µM [rising, single point].

As for `COc1ccc(NC(=O)CCC(=O)OCc2ccc(C(=O)Oc3ccc(Cl)cc3)cc2)cc1`, the half-maximal activity concentration (AC50) under setting [1] was 11.2 µM [rising, partial curve].

Take `Cc1nn(-c2ccccc2)c(N)c1N=Nc1ccccc1`: under setting [1], the half-maximal activity concentration (AC50) is 1.46 µM [rising, partial curve].

For `Cc1cccc(NS(=O)(=O)c2ccc(C3CCCCC3)cc2)n1`, the half-maximal activity concentration (AC50) under setting [2] is 8.2 µM [falling, partial curve, poor fit].

For the compound `COC(=O)c1cc(OC)c(OC)c(OC)c1[N+](=O)[O-]`, the concentration at half-maximal activity (AC50) under setting [1] is 35.5 µM [falling, single point].

For `C=CCOc1ccc(Br)cc1/C=C1/SC(=Nc2ccc(C(=O)O)cc2)NC1=O`, under setting [1], the half-maximal activity concentration (AC50) is 2.24 µM [falling, full curve, poor fit].

As for `COC(=O)CSc1nc(NC(C)(C)C)nc(N(C)C)n1`, the AC50 under setting [1] is 6.31 µM [rising, full curve, poor fit].

On to `COc1ccc(C2c3[nH]c4ccccc4c3CCN2CCCn2cccn2)c(C)c1C` (configuration not stated), for which, under setting [1], the concentration at half-maximal activity (AC50) is 35.5 µM [falling, single point].

With `O=C(Nc1cccnc1)c1cc(-c2cc(Cl)ccc2O)n[nH]1`, the AC50 under setting [1] is 8.91 µM [falling, partial curve, poor fit].

Consider `Oc1ccc(Br)cc1-c1cc(-c2ccc(Cl)cc2)n[nH]1`, for which the concentration at half-maximal activity (AC50) under setting [1] was 29.1 µM [falling, single point].

Turning to `CCC(=O)NCCc1nc2cc(NC(=O)Nc3ccccc3)ccc2n1C`, the AC50 under setting [1] was 10 µM [falling, partial curve].

For `CCc1c(C)[nH]c2ccc(C)cc2c1=O`, under setting [1], the half-maximal activity concentration (AC50) is 9.2 µM [rising, partial curve].

With `O=C(CSc1nnc(C2CC2)n1C1CC1)c1cccs1`, the AC50 under setting [1] is 0.82 µM [rising, full curve, poor fit].

Regarding `COc1ccccc1NC(=O)OCC#CCOC(=O)Nc1ccccc1OC`, the concentration at half-maximal activity (AC50) under setting [1] is 25.1 µM [falling, single point].

`Cc1cccc(CCNC(=O)c2cnc3c(C)cccn3c2=O)c1`: the concentration at half-maximal activity (AC50) under setting [1] is 35.5 µM [falling, single point].

Regarding `COc1cc(SC)ccc1C(=O)Nc1ccccc1`, the AC50 under setting [1] is 13 µM [falling, partial curve].

With `Cc1ccccc1-n1c(C)cc(/C=N/Nc2ccc([N+](=O)[O-])cn2)c1C`, the AC50 under setting [1] was 2.91 µM [falling, single point].

As for `O=C(NCCCn1ccnc1)/C(=C/c1cccs1)NC(=O)c1ccco1`, the concentration at half-maximal activity (AC50) under setting [1] was 0.708 µM [rising, full curve, poor fit].

Regarding `O=C(C1=C[C@@H](C2CCCCC2)C[C@@H](OCc2ccc(CO)cc2)O1)N1CCOCC1`, the AC50 under setting [1] was 35.5 µM [rising, single point].

`COC(=O)CN1C(c2ccc(OC)cc2)=Nc2ccc(Cl)cc2C1c1ccccc1` (configuration not stated): the AC50 under setting [1] was 20.6 µM [falling, single point].

`Cc1[nH]n(-c2ccccc2)c(=O)c1/C=N/NC(=O)c1ccoc1C`: under setting [1], the half-maximal activity concentration (AC50) is 5.8 µM [falling, full curve, poor fit].
